# Reference: PubChem BioAssay AID485314 (National Center for Advancing Translational Sciences (NCATS), 2010)
# “And” between values parts separate entries of the source, which are not always exact repeats. Equal values may be shown once. In all, about 340,000 compounds went through this assay and about 4,500 (1.3%) were called active. Inconclusive means that the source gave no clear call. Such entries were picked first, then a sample of the others. Calls follow the shape of the dose curve; as a rule, active = well fitted inhibition curve with a large enough effect; inconclusive = small, poorly fitted or top-dose-only effect, or another doubt; inactive = no such curve, though single readings can be large or run the other way. Potencies beside an inconclusive call are fits to weak or partial responses and may not hold up.
# Target: DNA polymerase beta (Homo sapiens) (UniProt P06746)
# Test: qHTS Assay for Inhibitors of DNA Polymerase Beta
# Settings: Pol beta primer extension/strand displacement, fluorescence kinetic; series mostly up to 114 µM
# Outline: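 Pol beta (10 nM) and compounds were preincubated 15 min at room temperature, then 50 nM substrate (final) started primer extension/strand displacement. Reads were taken at 0 and 10 min; concentration-response data were fitted to a four-parameter Hill equation.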
# Potency is read from the fitted curve at half-maximal effect.
row,Structure (SMILES),Potency
1,OCc1cn(-c2ccccc2)nn1,inactive
2,COc1cc(OC)cc(C(=O)N2CCN(Cc3ccccc3Br)CC2)c1,inactive
3,COc1ccc(/C=N/Nc2cc(C)nc(N3CCOCC3)n2)cc1,"inconclusive: 0.141 µM [inhibitor, full curve, poor fit]"
4,Cc1ccc(CNC(=O)CN2C(=O)C3(SCC(=O)N3c3cc(C)cc(C)c3)c3ccccc32)cc1 (configuration not stated),inactive
5,Cn1ncc2c(Nc3cccc(Cl)c3)nc(Nc3cccc(Cl)c3)nc21,"inconclusive: 3.16 µM [inhibitor, full curve, poor fit]"
6,CCC(/C=C1\Sc2ccc(OC)cc2N1CCO)=C\c1sc2ccc(OC)cc2[n+]1CCO,active: 22.4 µM
7,COc1ccc(Cc2nnc(NC(=O)C3CC(=O)N(c4ccc(OC)cc4)C3)s2)cc1 (configuration not stated),"inconclusive: 31.6 µM [inhibitor, full curve, poor fit]"
8,CC(=O)Nc1ccc2nc3c(=O)n(C)c(=O)n(C)c3nc2c1,"inconclusive: 0.282 µM [inhibitor, full curve, poor fit]"
9,O=C(O)C1CCCN(S(=O)(=O)c2ccc(-c3ccc(=O)[nH]n3)s2)C1 (configuration not stated),inactive
10,O=[N+]([O-])c1cc(Cl)cc(/C=N\Nc2ccccn2)c1O,inactive
11,CCc1ccccc1NC(=O)Cn1nnc(C(=O)NCc2cccs2)c1N,"inconclusive: 25.1 µM [inhibitor, full curve] and inconclusive: 6.31 µM [inhibitor, partial curve]"
12,COc1ccc(OC)c(NCc2cccn2-c2nnc(N3CCC(C)CC3)s2)c1,"inconclusive: 79.4 µM [inhibitor, single point]"
13,O=C(/C=C/c1ccc([N+](=O)[O-])cc1)Nc1cccc(C(=O)Nc2ccccc2C(=O)O)c1,"inconclusive: 25.1 µM [inhibitor, full curve]"
14,Cc1cc(O)ccc1N1C(=O)c2cccc3cc([N+](=O)[O-])cc(c23)C1=O,"inconclusive: 35.5 µM [inhibitor, partial curve]"
15,COc1ccccc1N=Cc1c(C)[nH]n(-c2ccc(C)cc2C)c1=O,"inconclusive: 89.1 µM [inhibitor, single point]"
16,CC1CCN(C(=O)c2ccc(N(C)S(C)(=O)=O)cc2)CC1,"inconclusive: 79.4 µM [inhibitor, single point]"
17,COc1cc(OC)c(OC)cc1/C=N/NC(=O)c1ccc2nc[nH]c2c1,"inconclusive: 79.4 µM [inhibitor, single point]"
18,CN(C)c1ccc(CNC(=O)c2cc3ccccn3n2)cc1,inactive
19,NC(=O)c1c(NC(=O)c2ccncc2)sc2c1CCCC2,inactive
20,C=CCn1c(SC2CCOC2=O)nc2scc(C3CC3)c2c1=O (configuration not stated),"inconclusive: 79.4 µM [inhibitor, partial curve]"
21,CC(C)(C)OC(=O)N1CCC(c2c(C(=O)Nc3cccc(C(F)(F)F)c3)cnn2-c2ccc(F)cc2F)CC1,"inconclusive: 20 µM [inhibitor, full curve]"
22,CC(C)=C(NC(=O)c1ccccc1)C(=O)Nc1cccc(C(=O)O)c1,"inconclusive: 89.1 µM [inhibitor, single point]"
23,CC(C)CCn1c(N2CCc3ccccc3C2)nc2c1c(=O)[nH]c(=O)n2C,inactive

row,Structure (SMILES),Potency
1,Cc1ccc(C2=C(O)c3ccccc3C(=O)C2=O)cc1,"inconclusive: 22.4 µM [inhibitor, single point]"
2,COc1ccc(/C=C/C(=O)Nc2ccc3nc(N4CCC(C)CC4)cc(C)c3c2)cc1OC,inactive
3,O=C(NCc1cccs1)c1nn(-c2ccccc2)nc1CO,inactive
4,Oc1ccc(CN2CCN(Cc3ccccc3)CC2)c2cccnc12,inactive
5,CC(=O)NC(=O)c1cnn(-c2ccccc2)c1N,"inconclusive: 35.5 µM [inhibitor, single point]"
6,O=c1[nH]n(-c2ccc([N+](=O)[O-])cc2)c(=O)c2ccccc12,"inconclusive: 39.8 µM [inhibitor, single point]"
7,COc1ccccc1C(=O)Nc1ccccc1C(=O)N1CCCC1,"inconclusive: 89.1 µM [inhibitor, single point]"
8,CCOc1cc2sc(N3CCC(C(=O)Nc4ccc(C(C)C)cc4)CC3)nc2cc1Br,inactive
9,Cc1cc(Cl)ccc1NS(=O)(=O)c1ccc2c(c1)CCN2S(C)(=O)=O,inactive
10,Cc1n[nH]c(=S)n1Cc1ccccc1,"inconclusive: 100 µM [inhibitor, single point]"
11,Cc1c(N/C(=N/S(=O)(=O)c2ccc(F)cc2)c2ccccc2)c(=O)n(-c2ccccc2)n1C,inactive
12,Cc1cc(N/N=C/c2ccc(O)cc2O)nc(-n2nc(C)cc2C)n1,"inconclusive: 25.1 µM [inhibitor, full curve]"
13,CN1C(=O)/C(=C/c2ccc(C(=O)Nc3ccc(O)cc3C(=O)O)cc2)SC1=S,"inconclusive: 11.2 µM [inhibitor, single point]"
14,Cc1ccccc1N(CC(=O)NC(C)(C)C)C(=O)CCC(=O)Nc1nccs1,"inconclusive: 5.01 µM [inhibitor, single point]"
15,CCCOc1ccc(CNC(=O)C(C)n2nc(C)n3c(cc4occc43)c2=O)cc1 (configuration not stated),"inconclusive: 100 µM [inhibitor, single point]"
16,COc1ccc(C(=O)CSc2nnc(-c3ccco3)n2C)cc1,inactive
17,CC(C)(C)c1ccc(OCC(=O)Nc2ccc(C(=O)Nc3ccccc3C(=O)O)cc2)cc1,inactive
18,Cc1cccc(Nc2c3c(nc4ccccc24)CCC3)c1,"inconclusive: 63.1 µM [inhibitor, single point]"
19,O=C(Nc1ccccc1)C1=C(O)CC(c2ccoc2)CC1=Nc1ccccc1 (configuration not stated),"inconclusive: 44.7 µM [inhibitor, partial curve]"
20,O=C(CCc1nnc(C2CCCCC2)o1)N1CCN(C2CCCCC2)CC1,"inconclusive: 17.8 µM [inhibitor, single point]"
21,Cc1cc(C)n(CCNC(=O)c2cc(COc3ccc4ncccc4c3)on2)n1,"inconclusive: 79.4 µM [inhibitor, single point]"
22,COc1ccc(NC(=O)C2CC(=O)N(Cc3ccc(C)cc3)C2)cc1S(=O)(=O)N1CCCCC1 (configuration not stated),"inconclusive: 39.8 µM [inhibitor, full curve]"
23,Cc1c(Cl)cccc1-n1c(SCC(=O)NCc2ccccc2)nc2n[nH]c(C)c2c1=N,"inconclusive: 79.4 µM [inhibitor, single point]"

row,Structure (SMILES),Potency
1,COc1ccc(CC(=O)Nc2ccc(-c3nc4ccccc4s3)cc2Cl)cc1OC,inactive
2,COc1ccc(Nc2cc(C(=O)NCCCN(C)c3ccccc3)c3ccccc3n2)c(OC)c1,"inconclusive: 89.1 µM [inhibitor, single point]"
3,O=C(O)/C=C\c1cc2c(cc1[N+](=O)[O-])OCO2,inactive
4,CS/C(=N\S(=O)(=O)c1cccs1)NC(=O)CSc1nc2ccccc2s1,"inconclusive: 89.1 µM [inhibitor, single point]"
5,Cc1ccc(N2CC(C(=O)N/N=C/c3cccc([N+](=O)[O-])c3)CC2=O)cc1 (configuration not stated),"inconclusive: 63.1 µM [inhibitor, single point]"
6,CCOc1cc(/C=N/NC(=O)C(N)=O)cc(Br)c1O,"inconclusive: 50.1 µM [inhibitor, partial curve]"
7,COc1ccc(-c2ccc3c(N)c(C(=O)Nc4ccc(C)cc4C)sc3n2)cc1OC,"inconclusive: 3.16 µM [inhibitor, full curve, poor fit]"
8,Cc1cccc(N2CCN(S(=O)(=O)c3ccc4c(c3)CCN4C(=O)CCC(=O)O)CC2)c1C,inactive
9,CCOc1ccc(N2CC(C(=O)NCc3ccccc3)CC2=O)cc1 (configuration not stated),"inconclusive: 7.94 µM [inhibitor, full curve, poor fit]"
10,O=C(N/N=C/C1=C(N2CCOCC2)C(=C\c2ccccc2)/CC1)Nc1ccccc1,inactive
11,O=C(CSc1nnc(-c2cccnc2)n1Cc1ccco1)c1ccc(Cl)c(Cl)c1,"inconclusive: 31.6 µM [inhibitor, partial curve]"
12,COc1ccc(NC(=O)C2CCCN(C(=O)Nc3ccc(F)cc3)C2)cc1OC (configuration not stated),inactive
13,O=C(NCc1nnc(SCC(=O)N2CCCCC2)o1)c1ccc(F)cc1,"inconclusive: 0.224 µM [inhibitor, full curve, poor fit]"
14,Cc1nn(C)c2c1c(-c1ccccc1)cc(=O)n2C(C)C(=O)NCCc1ccc(Cl)cc1 (configuration not stated),inactive
15,Cc1ccc(NC(=O)c2c(C)oc3ccc(O)c(CN4CCCCC4)c23)cc1,"inconclusive: 56.2 µM [inhibitor, partial curve, poor fit]"
16,Cc1ccc(Cl)cc1NC(=O)c1cnn2c(C(F)F)cc(-c3ccccc3)nc12,"inconclusive: 56.2 µM [inhibitor, partial curve, poor fit]"
17,CCOC(=O)c1c(-c2ccc(F)cc2)csc1NC(=O)CN1C(=O)NC2(CCCCC2C)C1=O (configuration not stated),"inconclusive: 31.6 µM [inhibitor, single point]"
18,CCc1nnc(NC(=O)C2=NN(C3CCS(=O)(=O)C3)C(=O)CC2)s1 (configuration not stated),"inconclusive: 44.7 µM [inhibitor, partial curve, poor fit]"
19,COc1cc(-c2nc3ccccc3nc2-c2ccc(O)c(OC)c2)ccc1O,"inconclusive: 0.794 µM [inhibitor, full curve, poor fit]"
20,Cc1c(C(=O)O)sc2nc(-c3cccs3)cc(C(F)(F)F)c12,"inconclusive: 79.4 µM [inhibitor, single point]"
21,O=C(Nc1ccc(Cl)cc1)N1N=CCC1c1ccccc1 (configuration not stated),"inconclusive: 89.1 µM [inhibitor, single point]"

# A portion from the list above, for reference:
row,Structure (SMILES),Potency
14,Cc1cc(O)ccc1N1C(=O)c2cccc3cc([N+](=O)[O-])cc(c23)C1=O,"inconclusive: 35.5 µM [inhibitor, partial curve]"
15,COc1ccccc1N=Cc1c(C)[nH]n(-c2ccc(C)cc2C)c1=O,"inconclusive: 89.1 µM [inhibitor, single point]"
16,CC1CCN(C(=O)c2ccc(N(C)S(C)(=O)=O)cc2)CC1,"inconclusive: 79.4 µM [inhibitor, single point]"
